Assay results from PubChem BioAssay AID504834 (National Center for Advancing Translational Sciences (NCATS), 2011).
Hit rate of the full screen: of about 320,000 compounds, about 22,000 (6.9%) were called active. Inconclusive results, whose numbers are uncertain, are shown with a selection of clear calls. Calls come from the whole dose curve; as a rule, active = well fitted inhibition curve with a large enough effect; inconclusive = small, poorly fitted or top-dose-only effect, or another doubt; inactive = no such curve, though single readings can be large or run the other way. Potencies beside an inconclusive call are fits to weak or partial responses and may not hold up.
Potency is the fitted concentration of half-maximal effect.

Assay: Primary qHTS for delayed death inhibitors of the malarial parasite plastid, 96 hour incubation
Conditions: P. falciparum luciferase reporter growth; series mostly up to 28.7 µM
Outline: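 Delayed-death screen, second-generation endpoint: infected erythrocytes, 2% hematocrit, 0.05% parasitemia final; 96 hours at 37 C, 5% CO2; luciferase detection reagent; luminescence decrease equals reduced growth.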
For `O=C(c1cccc(N2C(=O)C3C4C=CC(C4)C3C2=O)c1)N1CCN(c2ccc(F)cc2)CC1` (centres undefined), the Potency was inconclusive: 16.5 µM [inhibitor, single point]. For `COCCCn1c(SCC(=O)Nc2cccc(C(=O)OC)c2)nnc1-c1ccncc1`, the Potency was inconclusive: 18.5 µM [inhibitor, single point]. For `CCO[C@H]1OC(C(=O)NCc2ccccc2)=C[C@@H](c2coc3ccccc3c2=O)[C@@H]1CCCO`, the Potency was inconclusive: 13.1 µM [inhibitor, single point]. In the case of `CC1CCCC(NC(=S)NC(=O)c2cncc(Br)c2)C1C` (centres undefined), the Potency is reported as “inactive”. In the case of `O=C1CC2(CCN(C(=O)c3ccccc3Cl)CC2)Oc2ccccc21`, the Potency is reported as inconclusive: 18.5 µM [inhibitor, single point]. In the case of `CCCOc1ccc(C2c3c(oc4ccccc4c3=O)C(=O)N2CCN(CC)CC)cc1OC` (centres undefined), the Potency is reported as inconclusive: 2.94 µM [inhibitor, single point]. For `COc1cccc(N2C(=O)CN(Cc3cc(OC)c(OC)c(OC)c3)C2=S)c1`, the Potency was “inactive”. With `Cc1nnc(N/N=C/c2cccs2)[nH]c1=O` the Potency was inconclusive: 6.57 µM [inhibitor, partial curve]. For `O=C(CNC(=O)c1ccccc1)OCc1cc(=O)n2cc(Br)ccc2n1`, the Potency was “inactive”. For `CCCCN(C(=O)CC1CCCCC1)c1c(N)n(CC(C)C)c(=O)[nH]c1=O`, the Potency was inconclusive: 18.5 µM [inhibitor, single point]. For `COc1cccc(C2NC(=O)CCC2[N+](=O)[O-])c1` (centres undefined), the Potency was inconclusive: 2.33 µM [inhibitor, full curve]. For `Cc1cc(C(=O)N/N=C/c2c(C)nn(-c3ccccc3)c2C)c(C)o1`, the Potency was inconclusive: 10.4 µM [inhibitor, single point]. With `CCOC(=O)N1CCN(CC(O)COCc2ccccc2)CC1` (centres undefined) the Potency was “inactive”. With `Cc1cc(C=O)c2c(c1)C=CC1(Oc3ccccc3C(=O)N1C)O2` (centres undefined) the Potency was “inactive”. In the case of `CC(=NCCCN1CCOCC1)c1c(O)n(Cc2ccccc2)c(=O)[nH]c1=O`, the Potency is reported as inconclusive: 18.5 µM [inhibitor, single point]. In the case of `CCN(C(=O)CN1CCN(S(=O)(=O)c2cc(Cl)ccc2Cl)CC1)c1c(N)n(Cc2ccccc2)c(=O)[nH]c1=O`, the Potency is reported as inconclusive: 10.4 µM [inhibitor, single point]. In the case of `COc1cccc(C2/C(=C(/O)c3cnn(-c4ccccc4)c3C)C(=O)C(=O)N2CCN(C)C)c1` (centres undefined), the Potency is reported as “inactive”. In the case of `Cc1oc2c(C)c(O)ccc2c(=O)c1-c1nncn1-c1ccccc1`, the Potency is reported as inconclusive: 2.33 µM [inhibitor, partial curve, poor fit]. With `COc1ccc(C2=CC(=O)OC3(CCCCC3)O2)cc1` the Potency was inconclusive: 18.5 µM [inhibitor, single point]. With `Cc1cc2cc(CNC(=O)c3ccc(S(=O)(=O)N4CCCCC4)cc3)ccc2[nH]1` the Potency was inconclusive: 11.7 µM [inhibitor, partial curve]. In the case of `COc1ccc(N(CC(=O)Nc2cc(C)cc(C)c2)S(=O)(=O)c2ccccc2[N+](=O)[O-])c(OC)c1`, the Potency is reported as active: 8.28 µM. With `CCc1nnc(NS(=O)(=O)c2ccc(NCc3cc(Cl)ccc3O)cc2)s1` the Potency was “inactive”. For `O=C1c2ccccc2C(=O)c2c1cccc2N(CCO)CCO`, the Potency was “inactive”. In the case of `COc1ccc(CCNC(=O)COc2coc(CN3c4ccccc4CC3C)cc2=O)cc1OC` (centres undefined), the Potency is reported as inconclusive: 10.4 µM [inhibitor, partial curve]. In the case of `O=C(c1ccc(Sc2ccc(F)cc2)c([N+](=O)[O-])c1)N1CCOCC1`, the Potency is reported as inconclusive: 18.5 µM [inhibitor, single point]. For `CCOc1ccc(NC(=O)CCC(=O)N/N=C/c2ccc([N+](=O)[O-])s2)cc1`, the Potency was active: 4.15 µM. For `COc1ccc(N(C(=O)c2snc(C(N)=O)c2N)C(C(=O)NC2CCCC2)c2ccco2)cc1OC` (centres undefined), the Potency was inconclusive: 5.22 µM [inhibitor, partial curve]. In the case of `COc1cccc(CN(C)CC2CCCN(CCc3ccc(Cl)cc3)C2)c1OC` (centres undefined), the Potency is reported as active: 2.94 µM. With `CCOC(=O)CSc1nnc(NC(=O)c2cc([N+](=O)[O-])cc([N+](=O)[O-])c2)s1` the Potency was inconclusive: 5.22 µM [inhibitor, partial curve]. In the case of `CC1C/C(=N\NC(N)=S)c2cc(Cl)ccc2S1` (centres undefined), the Potency is reported as active: 1.85 µM. For `C=CCC(CC(O)COCCC)C(=O)NNC(=S)Nc1ccccc1` (centres undefined), the Potency was inconclusive: 1.47 µM [inhibitor, full curve]. With `Cc1cc(OCC(=O)NC2CCCCC2)ccc1Cl` the Potency was “inactive”. With `CCOC(=O)C1(c2ccccc2)CCN(CC(=O)Nc2ccc(C)cc2)CC1` the Potency was inconclusive: 10.4 µM [inhibitor, single point]. With `O=c1[nH]c(=O)n(-c2ccccc2)c(O)c1/C=C1/C(c2ccccc2)=Nc2ccccc21` the Potency was active: 9.28 µM. For `COc1cccc(NC(=O)[C@@H]2CCCN2S(=O)(=O)c2cccc3cccnc23)c1`, the Potency was inconclusive: 18.5 µM [inhibitor, single point]. For `CCC(=O)Oc1ccc(C2NC(=O)c3ccccc3O2)cc1OC` (centres undefined), the Potency was inconclusive: 18.5 µM [inhibitor, single point]. With `O=C(COC(=O)Cc1c[nH]c2ccccc12)NC1CCS(=O)(=O)C1` (centres undefined) the Potency was “inactive”. For `O=C1CN(c2cc(Cl)cc(Cl)c2)C(=O)CN1/N=C/c1cccnc1`, the Potency was “inactive”. In the case of `Cc1ccc(NC(=O)c2ccccc2OCc2c(C)noc2C)cc1S(=O)(=O)N(C)C`, the Potency is reported as inconclusive: 18.5 µM [inhibitor, single point]. In the case of `COCCN(CCOC)S(=O)(=O)c1ccc(/C(O)=C(\C#N)c2nc3ccccc3[nH]2)cc1`, the Potency is reported as inconclusive: 1.04 µM [inhibitor, partial curve, poor fit]. With `CCOC(=O)c1c(-c2ncc(C(F)(F)F)cc2Cl)noc1C` the Potency was “inactive”. With `COC(=O)c1scc(C)c1NC(=O)C(Cl)c1ccccc1` (centres undefined) the Potency was inconclusive: 14.7 µM [inhibitor, partial curve, poor fit]. For `O=C(Cn1c(C(=O)NCC2CCCO2)cc2sccc21)c1ccccc1` (centres undefined), the Potency was inconclusive: 18.5 µM [inhibitor, single point]. In the case of `CCC(C)N(NC(C)=O)c1nc(Cl)nc(NC(C)C)n1` (centres undefined), the Potency is reported as inconclusive: 10.4 µM [inhibitor, single point]. For `CC(=O)c1ccc(C(=O)Nc2ccc3c(c2)C(=O)NC3=O)cc1`, the Potency was “inactive”. With `CC(C)[C@H](NC(=O)N1CCn2c1nc1ccccc12)C(=O)N[C@H](C(=O)O)c1ccccc1` the Potency was inconclusive: 6.57 µM [inhibitor, partial curve, poor fit]. In the case of `O=C(NNC(=O)C1CC1c1ccccc1)Nc1ccccc1` (centres undefined), the Potency is reported as “inactive”. In the case of `CCOC(=O)C1=C(C)N(C)C(C)=C(C(=O)OCC)C1c1ccccc1`, the Potency is reported as inconclusive: 9.28 µM [inhibitor, partial curve, poor fit]. With `O=C(Nc1cccc(F)c1)C1CCCN(S(=O)(=O)c2cccc3cccnc23)C1` (centres undefined) the Potency was inconclusive: 18.5 µM [inhibitor, single point]. In the case of `CCCCn1c(N)c(N(CC)C(=O)c2cccc(S(=O)(=O)N3CCCc4ccccc43)c2)c(=O)[nH]c1=O`, the Potency is reported as inconclusive: 4.15 µM [inhibitor, partial curve, poor fit]. With `CC1(C)O[C@H]2OC([C@H](O)CON3C(=O)c4ccccc4C3=O)[C@H](O)[C@H]2O1` (some centres undefined) the Potency was “inactive”. With `CCOc1ccc(NC(=O)N(C2CCCCCC2)C2CCN(C(C)=O)CC2)cc1` the Potency was “inactive”. With `CCCCN(C(=O)c1cccc(S(=O)(=O)N2CCN(C)CC2)c1)c1c(N)n(CC(C)C)c(=O)[nH]c1=O` the Potency was “inactive”. In the case of `Cc1cccc(C2CN(C)CCc3c2cc(O)c(O)c3Cl)c1` (centres undefined), the Potency is reported as inconclusive: 18.5 µM [inhibitor, single point]. For `O=C1OCCC1Sc1nc(-c2ccccc2)cs1` (centres undefined), the Potency was “inactive”. For `CC(=O)N1CCOc2ccc(S(=O)(=O)NCCc3cccc(C)c3)cc21`, the Potency was active: 10.4 µM. With `Cc1cc(C)cc(NC(=O)COC(=O)CCn2c(C)csc2=O)c1` the Potency was inconclusive: 0.738 µM [inhibitor, full curve, poor fit]. For `CCOc1ccccc1NC(=O)C1CCN(S(=O)(=O)c2ccc(OC)c(OC)c2)CC1`, the Potency was active: 6.57 µM. With `Cc1ccc(OCC(=O)Nc2ccc(N3CCOCC3)cc2)c([N+](=O)[O-])n1` the Potency was inconclusive: 11.7 µM [inhibitor, single point]. With `O=C(Nc1cccc(Cl)c1)C1CCCN(S(=O)(=O)c2ccc(F)cc2)C1` (centres undefined) the Potency was inconclusive: 18.5 µM [inhibitor, single point]. In the case of `FC(F)(F)c1cnc(C(c2ccccn2)c2ncn[nH]2)c(Cl)c1` (centres undefined), the Potency is reported as inconclusive: 18.5 µM [inhibitor, single point]. For `O=C(Cn1cncn1)N/N=C/c1cc([N+](=O)[O-])ccc1O`, the Potency was inconclusive: 16.5 µM [inhibitor, partial curve, poor fit]. For `COc1ccc(NC(=O)CN2CCN(CC(=O)Nc3ccccc3F)CC2)c(OC)c1`, the Potency was “inactive”. With `O=C(NCc1cccnc1)NC(=O)c1ccc(Cl)cc1` the Potency was “inactive”. With `Cn1ncc(C#N)c1/N=C/N1CCCC1` the Potency was “inactive”. For `COc1ccc(S(=O)(=O)N=C2C=C(C)C(=O)C(C)=C2)cc1`, the Potency was inconclusive: 0.37 µM [inhibitor, partial curve, poor fit]. With `Cc1cc(C(=O)Nc2c[nH]c(=O)[nH]c2=O)ccc1[N+](=O)[O-]` the Potency was inconclusive: 4.15 µM [inhibitor, partial curve]. With `Cc1cccc(C)c1NC(=O)CN1CCN(CCCC(c2ccc(F)cc2)c2ccc(F)cc2)CC1` the Potency was active: 4.55 µM. In the case of `COc1cc(CNn2nnnc2N)ccc1OCc1c(Cl)cccc1Cl`, the Potency is reported as “inactive”.
